# About 6,000 (1.7%) of roughly 350,000 compounds were called active. The inconclusive results got no clear call from the source; some entries with a clear call stand among them for comparison. Rule as the data show it: active = CPE inhibition above about 20% (passing the limit was not always enough); inconclusive = no clear call, values can overlap the other calls; tested in BHK-21 cells.
# Experiment: protection of cells from dengue 2 killing – plate reader, single concentration, primary screen (AID 651640);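 also: 0% = median of neutral control wells and 100% = median of positive control wells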
# Settings: DENV2-infected cells, cytopathic effect rescue, at 9.99 µM, active compounds read high
row,SMILES,CPE inhibition
1,C[C@@H]1CN([C@@H](C)CO)C(=O)c2cc(NS(=O)(=O)c3cccs3)ccc2O[C@@H](C)CCCCO[C@H]1CN(C)C(=O)Cc1ccccc1,inactive: -1.41%
2,CCC(=O)N(c1nnc(SCC(=O)NN2C(=O)NC3(CCCCC3)C2=O)s1)C1CC1,inconclusive: 27.5%
3,O=c1[nH]c(C2CCN(S(=O)(=O)c3ccc(S(=O)(=O)NC4CC4)cc3)CC2)nc2c1nnn2Cc1cccc(F)c1,inconclusive: 31.4%
4,N/C(=N\OC(=O)Cc1ccc(Cl)cc1)c1ccncc1,inactive: 2.87%
5,O=S(=O)(c1cccs1)N1CCCCN2[C@H](CO)[C@H](c3ccc(Br)cc3)[C@H]2C1,active: 37.7%
6,COc1cccc(C(C)NC(=O)C2CCCC2)c1 (configuration not stated),inconclusive: 23.8%
7,COc1ccc(-c2ccc(C3[C@H]4CNC[C@@H]3N4S(=O)(=O)c3cccc(C)c3)cc2)cc1 (some centres not stated),inconclusive: 36.3%
8,C/C(CC(=O)NC(C)c1ccccc1)=N\NC(N)=S (configuration not stated),inconclusive: 25.5%
9,COc1ccc(S(=O)(=O)Nc2ccc3c(c2)C(=O)N([C@@H](C)CO)C[C@H](C)[C@@H](CN(C)C(=O)Cc2ccccc2)OCCCC[C@@H](C)O3)cc1,active: 25.6%
10,CO[C@@H]1CN(C)C(=O)c2cc(NC(=O)c3ccc(F)cc3)ccc2OC[C@H](C)N(C(=O)CN(C)C)C[C@@H]1C,inactive: -5.94%
11,N#Cc1ccc(-c2ccc([C@@H]3[C@@H]4CN(C(=O)Nc5ccc6c(c5)OCO6)C[C@H]3N4)cc2)cc1,inactive: 15.4%
12,CCOC(=O)c1c(C)[nH]c(C)c1C(=O)COC(=O)c1cc(OC)c(OC)cc1OC,inconclusive: 22.9%
13,COc1cccc(C(=O)Nc2cc(C)nn2-c2ccccc2)c1OC,inactive: 11.5%
14,C[C@@H]1CCCCO[C@H](CN(C)S(=O)(=O)c2cccs2)[C@@H](C)CN([C@H](C)CO)C(=O)c2cc(NC(=O)Nc3cccc4ccccc34)ccc2O1,inactive: -0.956%
15,N#C[C@@H]1[C@@H](c2ccccc2)[C@@H](CO)N1S(=O)(=O)c1ccc(-c2ccccc2)cc1,inconclusive: 57.4%
16,COc1ccc2c3c([nH]c2c1)[C@H](CO)N(Cc1ccccc1)CC31CCN(S(C)(=O)=O)CC1,inconclusive: 23.5%
17,CC(C)C#Cc1ccc([C@@H]2[C@@H](CO)N(C(=O)CN(C)C)[C@H]2C#N)cc1,inconclusive: 29.2%
18,CC(=O)N1CCN(S(=O)(=O)c2cccc(C(=O)N3CCN(S(=O)(=O)c4c(C)c(C)cc(C)c4C)CC3)c2)CC1,inconclusive: 42%
19,Cc1cccc(CCNC(=O)c2cccc(N3CCCC3=O)c2)c1,inconclusive: 38.4%
20,C/C=C/c1ccc2c(c1)O[C@@H](CN(C)Cc1ccccc1)[C@@H](C)CN([C@H](C)CO)S2(=O)=O,inconclusive: 40.9%
21,CN(C)CCCNc1nc2cc(-c3ccn[nH]3)sc2c(=O)n1C,inactive: 11%
22,Cc1ccc(S(=O)(=O)N2CCN(C(=O)C(O)c3ccccc3)CC2)cc1 (configuration not stated),active: 37.3%
23,Cc1noc(C)c1S(=O)(=O)Nc1ccc2c(c1)C(=O)N([C@H](C)CO)C[C@H](C)[C@@H](CN(C)C(=O)Nc1ccccc1)O2,inconclusive: 29.4%
24,CCOC(=O)C(C)n1cnc2c(nnn2-c2ccc(F)cc2)c1=O (configuration not stated),inconclusive: 53.7%

row,SMILES,CPE inhibition
1,COCC(=O)Nc1ccc2c(c1)OC[C@@H](C)N(CCc1ccccc1)C[C@H](C)[C@@H](OC)CN(C)C2=O,inconclusive: 31.3%
2,Cc1ccccc1NC(=O)Cc1nc(COC(=O)CCNS(=O)(=O)c2ccccc2)cs1,inconclusive: 20.2%
3,C[C@H](CO)N1C[C@H](C)[C@@H](CN(C)S(=O)(=O)c2cccs2)Oc2c(NC(=O)Cc3ccccc3)cccc2C1=O,inconclusive: 65.4%
4,Cc1ccc(C(C)C)c(OCC(=O)N2CCN(c3ncccn3)CC2)c1,inconclusive: 36.2%
5,C[C@H](CO)N1C[C@H](C)[C@H](CN(C)C(=O)c2ccncc2)OCc2ccccc2-c2ccccc2C1=O,inconclusive: 21.4%
6,N#C[C@H]1[C@@H](c2ccc(C3=CCCCC3)cc2)[C@@H](CO)N1S(=O)(=O)c1cccc(F)c1,active: 91.6%
7,CCOC(=O)C(C(=O)OCC)C(=O)c1cccc2ccc3ccccc3c12,inconclusive: 46%
8,Cc1cccc(NC(=O)C2c3ccccc3Oc3ccccc32)n1,inconclusive: 21.8%
9,Cc1cccc(NS(=O)(=O)c2ccc(S(=O)(=O)N3CCCC3)cc2)c1,inconclusive: 26.2%
10,CN1C(=O)c2cc(NC(=O)Cc3ccccc3)ccc2OC[C@H]2O[C@H](CC(=O)NCC3CC3)CC[C@H]21,inconclusive: 24.9%
11,CC(C)NC(=O)Nc1ccc2c(c1)C(=O)N([C@H](C)CO)C[C@H](C)[C@H](CN(C)S(=O)(=O)c1cccs1)OCCCC[C@@H](C)O2,inconclusive: 56.5%
12,O=C1COc2ccc(S(=O)(=O)CCC(=O)N3CCN(c4cccc(C(F)(F)F)c4)CC3)cc2N1,inconclusive: 25.6%
13,CC(C(=O)NC1CCCCC1)N1C(=O)c2cccc3cccc1c23 (configuration not stated),inconclusive: 30.3%
14,Cc1cc(NC(=O)CSc2nnc(C)n2C)no1,inconclusive: 31.8%
15,COc1ccccc1S(=O)(=O)N[C@@H]1CC[C@@H](CCNC(=O)C2CCCC2)O[C@@H]1CO,active: 20.1%
16,CCN1CCN(c2ncnc3c2cnn3-c2ccc(Cl)cc2)CC1,active: 50.5%
17,CC1=C(C(=O)N2CCCCCC2)CC(CC(=O)NC2CCCCC2)C(=O)N1Cc1ccc(F)cc1 (configuration not stated),inconclusive: 43.2%
18,COc1ccccc1NC(=O)N[C@H]1CC[C@@H](CC(=O)N[C@@H](C)c2ccccc2)O[C@H]1CO,inactive: 3.47%
19,CSCCC(NC(=O)c1ccc(Cl)cc1)C(=O)OCC(C)=O (configuration not stated),inconclusive: 28.5%
20,CCOc1ccc(C(=O)NCC(=O)NC(C)c2ccc(-n3ccnc3)cc2)cc1OCC (configuration not stated),inconclusive: 48.3%
21,O=C(NCC1CCCCC1)c1cccnc1Cl,inactive: 12.2%
22,Cc1nc(NC(=O)CCc2ccccc2)sc1C,inconclusive: 26.8%
23,COc1ccc(CNC(=O)c2cc(C3CC3)nc3c2cnn3C(C)C)cc1,inactive: -2.93%
24,COCC(=O)Nc1ccc2c(c1)C(=O)N(C)[C@@H]1CC[C@H](CC(=O)NCc3cccc(F)c3)O[C@@H]1CO2,inactive: 1.92%

# 21 entries from above, bar-delimited:
row | SMILES | CPE inhibition
20 | C/C=C/c1ccc2c(c1)O[C@@H](CN(C)Cc1ccccc1)[C@@H](C)CN([C@H](C)CO)S2(=O)=O | inconclusive: 40.9%
21 | CN(C)CCCNc1nc2cc(-c3ccn[nH]3)sc2c(=O)n1C | inactive: 11%
22 | Cc1ccc(S(=O)(=O)N2CCN(C(=O)C(O)c3ccccc3)CC2)cc1 (configuration not stated) | active: 37.3%
23 | Cc1noc(C)c1S(=O)(=O)Nc1ccc2c(c1)C(=O)N([C@H](C)CO)C[C@H](C)[C@@H](CN(C)C(=O)Nc1ccccc1)O2 | inconclusive: 29.4%
24 | CCOC(=O)C(C)n1cnc2c(nnn2-c2ccc(F)cc2)c1=O (configuration not stated) | inconclusive: 53.7%
1 | COCC(=O)Nc1ccc2c(c1)OC[C@@H](C)N(CCc1ccccc1)C[C@H](C)[C@@H](OC)CN(C)C2=O | inconclusive: 31.3%
2 | Cc1ccccc1NC(=O)Cc1nc(COC(=O)CCNS(=O)(=O)c2ccccc2)cs1 | inconclusive: 20.2%
3 | C[C@H](CO)N1C[C@H](C)[C@@H](CN(C)S(=O)(=O)c2cccs2)Oc2c(NC(=O)Cc3ccccc3)cccc2C1=O | inconclusive: 65.4%
4 | Cc1ccc(C(C)C)c(OCC(=O)N2CCN(c3ncccn3)CC2)c1 | inconclusive: 36.2%
5 | C[C@H](CO)N1C[C@H](C)[C@H](CN(C)C(=O)c2ccncc2)OCc2ccccc2-c2ccccc2C1=O | inconclusive: 21.4%
6 | N#C[C@H]1[C@@H](c2ccc(C3=CCCCC3)cc2)[C@@H](CO)N1S(=O)(=O)c1cccc(F)c1 | active: 91.6%
7 | CCOC(=O)C(C(=O)OCC)C(=O)c1cccc2ccc3ccccc3c12 | inconclusive: 46%
8 | Cc1cccc(NC(=O)C2c3ccccc3Oc3ccccc32)n1 | inconclusive: 21.8%
9 | Cc1cccc(NS(=O)(=O)c2ccc(S(=O)(=O)N3CCCC3)cc2)c1 | inconclusive: 26.2%
10 | CN1C(=O)c2cc(NC(=O)Cc3ccccc3)ccc2OC[C@H]2O[C@H](CC(=O)NCC3CC3)CC[C@H]21 | inconclusive: 24.9%
11 | CC(C)NC(=O)Nc1ccc2c(c1)C(=O)N([C@H](C)CO)C[C@H](C)[C@H](CN(C)S(=O)(=O)c1cccs1)OCCCC[C@@H](C)O2 | inconclusive: 56.5%
12 | O=C1COc2ccc(S(=O)(=O)CCC(=O)N3CCN(c4cccc(C(F)(F)F)c4)CC3)cc2N1 | inconclusive: 25.6%
13 | CC(C(=O)NC1CCCCC1)N1C(=O)c2cccc3cccc1c23 (configuration not stated) | inconclusive: 30.3%
14 | Cc1cc(NC(=O)CSc2nnc(C)n2C)no1 | inconclusive: 31.8%
15 | COc1ccccc1S(=O)(=O)N[C@@H]1CC[C@@H](CCNC(=O)C2CCCC2)O[C@@H]1CO | active: 20.1%
16 | CCN1CCN(c2ncnc3c2cnn3-c2ccc(Cl)cc2)CC1 | active: 50.5%

# The list goes on:

row,SMILES,CPE inhibition
1,CCOC(=O)C1CCCN(c2c(N3CCN(C4CCCCC4)CC3)c(=O)c2=O)C1 (configuration not stated),inconclusive: 24.6%
2,CCCNC(=O)N1[C@H](C#N)[C@H](c2ccccc2-c2ccc(C)cc2)[C@@H]1CO,inactive: 1.52%
3,COc1ccc2c3c(n(C)c2c1)[C@H](CO)N(C(=O)Nc1ccc(F)cc1)CC31CN(Cc2cccnc2)C1,inactive: 7.25%
4,CC(C)CC#Cc1cnc2c(c1)C(=O)N([C@@H](C)CO)C[C@H](C)[C@@H](CN(C)C(=O)Nc1cc(F)ccc1F)O2,inconclusive: 27%
5,COc1ccc(NC(=O)N[C@H]2CC[C@@H](CCn3cc(-c4ccccc4F)nn3)O[C@@H]2CO)cc1,inactive: 16.1%
6,Cc1ccc(-c2cn3c(n2)SCC3)cc1,inactive: -2.07%
7,CN(Cc1ccc(Cl)cc1)C(=O)COC(=O)c1ccc(-c2ccc(O)cc2)cc1,inconclusive: 46.2%
8,CN1CCN(C(=O)C[C@H]2CC[C@@H]3[C@H](COC[C@H](O)CN3CC3CCCC3)O2)CC1,inconclusive: 76.9%
9,CN1C(=O)[C@H]2[C@@H](/C=C/c3ccccc3)N3C(=O)CN(Cc4ccc(-c5ccccc5)cc4)C(=O)[C@@]3(C)[C@H]2C1=O,inconclusive: 28.2%
10,Cc1noc(C)c1NC(=O)N(C)C[C@@H]1Oc2ccc(NC(=O)NC3CCCCC3)cc2CC(=O)N([C@@H](C)CO)C[C@H]1C,active: 23.7%
11,O=C(OC1CCCCC1=O)c1cccc(S(=O)(=O)N2CCOCC2)c1 (configuration not stated),inconclusive: 64.4%
12,O=S(=O)(c1ccccc1F)N1CCCCN2[C@H](CO)[C@H](c3ccc(-c4ccccc4)cc3)[C@H]2C1,active: 33.9%
13,COCCNC(=O)C1(C)CCN(C(=O)c2ccc(C(F)(F)F)nc2C)C1 (configuration not stated),inconclusive: 30.4%
14,COc1ccc(C[C@H]2CN3C(=NC[C@@H]3Cc3ccccc3)N2CCNC(=O)CCC2CCCCC2)cc1,inactive: -6.79%
15,Cn1c(=O)[nH]c(=O)c2c1nc([N+](=O)[O-])n2Cc1ccccc1,inconclusive: 24.6%
16,CO[C@H]1CN(C)C(=O)c2cc(NC(C)=O)ccc2OC[C@@H](C)N(Cc2cccc(F)c2)C[C@@H]1C,inactive: -8.77%
17,O=C(Nc1ccccc1N1CCCC1)c1cc(Cl)ccc1Cl,inconclusive: 20.1%
18,CC(C)C(=O)Nc1ccc2c(c1)C(=O)N(C)[C@@H]1CC[C@H](CC(=O)NCc3ccc(F)cc3)O[C@H]1CO2,inconclusive: 51.6%
19,CCCC(=O)Nc1ccc2c(c1)C(=O)N(C)[C@H]1CC[C@H](CC(=O)O)O[C@@H]1CO2,inactive: -0.077%
20,Cc1noc(C)c1S(=O)(=O)Nc1ccc2c(c1)C(=O)N([C@@H](C)CO)C[C@H](C)[C@@H](CN(C)Cc1ccc(Cl)c(Cl)c1)OCCCC[C@H](C)O2,active: 22.5%
21,COc1cccc(/C=C2\Oc3ccc(O)cc3C2=O)c1O,inconclusive: 33.5%
22,COC(=O)[C@@H]1CCCN1C(=O)[C@@H](NC(=O)OC(C)(C)C)C(C)C,inconclusive: 26.7%
23,CC1(C)CC(N2CCN(Cc3ccccc3)CC2)=CC(=[N+]2CCCCC2)C1,inconclusive: 32.2%
24,c1ccc(-c2ccc(OCCN3CCOCC3)cc2)cc1,active: 27.1%

# From PubChem BioAssay AID651640 (Broad Institute, 2012)
